# Results of single-concentration screens

Chains of the proteins cited; added tags and fusions are not shown. Residues count along the entry.
UniProt P9WPC5, whole entry: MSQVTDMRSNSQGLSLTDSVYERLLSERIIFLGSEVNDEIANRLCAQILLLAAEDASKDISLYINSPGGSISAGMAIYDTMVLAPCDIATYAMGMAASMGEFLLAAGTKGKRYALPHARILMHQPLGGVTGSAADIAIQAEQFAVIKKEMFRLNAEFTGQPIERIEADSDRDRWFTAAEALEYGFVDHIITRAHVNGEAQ
UniProt P9WPC3, whole entry partner: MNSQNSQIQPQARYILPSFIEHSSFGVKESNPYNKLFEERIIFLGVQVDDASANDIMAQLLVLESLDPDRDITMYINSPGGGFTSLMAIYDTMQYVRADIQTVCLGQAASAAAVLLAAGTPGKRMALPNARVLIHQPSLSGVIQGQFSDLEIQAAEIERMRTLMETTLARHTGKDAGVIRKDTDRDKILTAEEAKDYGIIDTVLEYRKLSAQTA
UniProt A4I591, 1-473: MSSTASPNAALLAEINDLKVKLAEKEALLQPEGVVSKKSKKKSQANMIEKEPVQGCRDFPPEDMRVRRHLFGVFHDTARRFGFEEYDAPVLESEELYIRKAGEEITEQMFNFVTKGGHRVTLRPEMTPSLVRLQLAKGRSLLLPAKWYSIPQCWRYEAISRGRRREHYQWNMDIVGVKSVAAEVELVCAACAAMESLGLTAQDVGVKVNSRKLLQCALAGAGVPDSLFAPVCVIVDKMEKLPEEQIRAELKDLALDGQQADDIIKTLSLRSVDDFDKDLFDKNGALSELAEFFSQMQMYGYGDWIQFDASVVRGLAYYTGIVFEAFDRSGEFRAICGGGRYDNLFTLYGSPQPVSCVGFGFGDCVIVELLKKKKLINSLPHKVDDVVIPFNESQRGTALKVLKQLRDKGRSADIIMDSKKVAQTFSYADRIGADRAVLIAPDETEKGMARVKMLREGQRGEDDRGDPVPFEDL

The values are deposited in ChEMBL (CHEMBL3988442, “University of Dundee, Small-Polar-MMV Screening Library” (2021)).

ClpP1P2: 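Protease assay of ClpP1P2, read by the AMC dye that it sets free. Target: ClpP1P2, Mycobacterium tuberculosis (UniProt P9WPC5 and UniProt P9WPC3). Tested at 50 µM. Higher reads as stronger inhibition, judged from the few compounds that gave an IC50. Most other retested compounds had strongly negative values. Of about 69,000 compounds tested this way, about 10 (0.015%) reached 50% or more in at least one test.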
LiHisRS: 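Enzyme assay of histidyl-tRNA synthetase; the read-out is not stated. Target: Histidine-tRNA ligase, Leishmania infantum (UniProt A4I591). Tested at 30 µM. Higher reads as stronger inhibition (inferred: compounds with an IC50 in retests scored well above the rest). The assay is labelled LdHisRS but filed under L. infantum. About 69,000 compounds were tested under these conditions; 0.6% (about 410) showed 50% or more at least once.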

Results are given as percent effect.
The record does not define 0% and 100%; most values in the screen are far below 50% and negative numbers occur (in some assays of this library far below -100).
Compounds were drawn at random from those tested, without regard to their results.

For CCOc1ccc(OC2CCCN(c3cnn(C)c3)C2=O)cc1 (centres undefined) the result was ClpP1P2: -3.377%; LiHisRS: 20%.
For CCc1cc(C(F)(F)F)c2c(C3CCCN(C(=O)COC)C3)noc2n1 (centres undefined) the result was ClpP1P2: -19.52%; LiHisRS: 42%.
For CCc1nccn1C1CCCN(C(=O)c2cncnc2C)C1 (centres undefined) the result was ClpP1P2: -18.78%; LiHisRS: 7.895%.
For Cc1cc(N2CCCC2Cn2nc(C)cc2C)n2ncnc2n1 (centres undefined) the result was ClpP1P2: 9.297%; LiHisRS: 14.17%.
For Cc1cc(-c2cnc(N3CCN(C)CC3)nc2-c2ccc(C)s2)on1 the result was ClpP1P2: -7.535%; LiHisRS: 11.11%.
For COc1ccc(-c2cnc(CN3CCCC3Cn3cccn3)o2)cc1 (centres undefined) the result was ClpP1P2: -39.19%; LiHisRS: 16.07%.
For CC(NC(=O)NCCCn1cccn1)c1ccc2c(c1)NC(=O)CO2 (centres undefined) the result was ClpP1P2: 3.501%; LiHisRS: -5.618%.
For O=C(c1ccoc1)N1CCC2(CC1)C(=O)Nc1ccccc12 the result was ClpP1P2: 9.81%; LiHisRS: 20.75%.
For c1cc(CNCC2OCCc3cn(CC4CCOCC4)nc32)ccn1 (centres undefined) the result was ClpP1P2: 14.06%; LiHisRS: 16.54%.
For COc1ccccc1C(O)CNC(=O)NCc1cccnc1OC (centres undefined) the result was ClpP1P2: 3.336%; LiHisRS: -21.35%.
For Cc1cn[nH]c1C1CCCN1Cc1ccc(F)c(F)c1 (centres undefined) the result was ClpP1P2: -19.9%; LiHisRS: 12.86%.
For CCCn1cc(CN2CCOCC2c2[nH]ncc2C)cn1 (centres undefined) the result was ClpP1P2: -4.72%; LiHisRS: 5.594%.
For CN(C)C(=O)c1cccc(Nc2cnn(C)c2)c1 the result was ClpP1P2: 8.282%; LiHisRS: 13.33%.
For CC(CNCc1ccc(Br)cc1)Oc1ccccn1 (centres undefined) the result was ClpP1P2: 1.901%; LiHisRS: 15.79%.
For O=C([C@H]1C[C@H]2OCC[C@H]2N(Cc2cccnc2)C1)N1CCCO1 the result was ClpP1P2: 7.441%; LiHisRS: 12.03%.
For Cc1occc1C(=O)N1CCC2(CC1)CC(OCc1ccccn1)CO2 (centres undefined) the result was ClpP1P2: 11.59%; LiHisRS: 0%.
For Nc1nccc(N2CCC(c3cc(Cc4ccccc4)n[nH]3)CC2)n1 the result was ClpP1P2: -5.887%; LiHisRS: 12.39%.
For CCn1ccnc1CN1CCCN(C(=O)c2ccsc2)CC1 the result was ClpP1P2: -24.08%; LiHisRS: 12.84%.
For O=C(CC1CCCO1)NCCCC(=O)Nc1ccc(Cl)cc1 (centres undefined) the result was ClpP1P2: -2.899%; LiHisRS: 12.09%.
For CCCn1ccc2cc(NC(=O)CC3CCCO3)ccc21 (centres undefined) the result was ClpP1P2: 2.032%; LiHisRS: 9.859%.
For CNC(=O)NCC1CCC2(CCN(c3ncccn3)CC2)CO1 (centres undefined) the result was ClpP1P2: -1.916%; LiHisRS: 6.364%.
For O=C(c1cnccn1)N1CCc2ncnc(-c3cccnc3)c2CC1 the result was ClpP1P2: -5.008%; LiHisRS: 5.66%.
For CSc1nccn1-c1cccc(C(=O)NCCC(=O)NC(C)C)c1 the result was ClpP1P2: -19.78%; LiHisRS: 13.39%.
For CS(=O)(=O)c1ccccc1N[C@@H]1c2ccccc2C[C@@H]1O the result was ClpP1P2: -9.126%; LiHisRS: 20%.
For CN(Cc1cscn1)C1CCN(C(=O)OC(C)(C)C)CC1 the result was ClpP1P2: 7.99%; LiHisRS: -11.11%.